Changes are numbered by the printed parent chain. Results are given in words; binding and its absence hold for the method and conditions named. Binding seen in cells or lysates may run through a third protein. Some binding calls cover weakened binding; strength is not graded here. For some of these results: Sequences can lack the tags named with a protein.

For assay [1], the target named is T1, recombinant mouse short-form Klotho with C-terminal Flag and 6xHis (mIMCD) (mouse) (UniProt O35082).
T1 sequence: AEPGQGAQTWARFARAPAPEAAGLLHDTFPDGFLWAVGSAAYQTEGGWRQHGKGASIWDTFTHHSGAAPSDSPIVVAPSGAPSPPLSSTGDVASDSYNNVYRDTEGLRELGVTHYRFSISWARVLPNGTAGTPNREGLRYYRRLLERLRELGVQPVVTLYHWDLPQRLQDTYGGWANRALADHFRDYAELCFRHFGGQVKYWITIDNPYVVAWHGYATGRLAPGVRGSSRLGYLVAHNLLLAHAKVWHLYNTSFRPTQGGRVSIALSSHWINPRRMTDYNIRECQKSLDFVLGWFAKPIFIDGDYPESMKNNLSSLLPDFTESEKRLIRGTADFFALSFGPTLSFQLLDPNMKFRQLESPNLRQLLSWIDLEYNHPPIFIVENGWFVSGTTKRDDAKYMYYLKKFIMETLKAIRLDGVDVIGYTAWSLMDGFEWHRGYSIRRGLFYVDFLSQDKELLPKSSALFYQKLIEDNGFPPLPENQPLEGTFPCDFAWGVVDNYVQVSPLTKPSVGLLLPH
The experiment in a line: co-IP; lysates of mIMCD cells expressing recombinant Skl, Klotho or Flag antibody-conjugated beads (Direct IP kit), 4°C overnight; western blot with Klotho and FGH (ESD) antibodies.

The target of assay [2] is T2, short-form Klotho, endogenous in mouse kidney (mouse (endogenous in kidney)) (UniProt O35082).
T2 sequence: T1 sequence
Description: co-IP; kidney lysates of wild-type and KL-/- mice, Klotho antibody-conjugated IP-Direct beads; western blot for Klotho and FGH. In general terms: Immunoblotting shows a protein as a band on a membrane.

For assay [3], the target named is T3, recombinant mouse short-form Klotho with C-terminal Flag and 6xHis (HEK293) (mouse) (UniProt O35082).
T3 sequence (chain, N-glycosylated at N161, N285 and N346): T1 sequence
Description: co-IP; lysates of HEK293 cells expressing recombinant Skl, Klotho or Flag antibody-conjugated beads (Direct IP kit), 4°C overnight; western blot with Klotho and FGH (ESD) antibodies.

In assay [4] the target is T4, de-glycosylated short-form Klotho, triple mutant N161A/N285A/N346A (mouse) (UniProt O35082).
T4 sequence: T1 sequence with N127A, N251A, N312A
The assay is described as above.

B1: S-formylglutathione hydrolase (mouse, mIMCD) (enzyme, UniProt Q9R0P3 1-282)
chain: MALKQISSNRCFGGLQKVFEHSSVELKCKMRFAVYLPPQAESGKCPALYWLSGLTCTEQNFISKSGYQQAASEHGLVVIAPDTSPRGCNIKGEDDSWDFGTGAGFYVNATEDPWKANYRMYSYVTEELPQLINANFPVDPQRMSIFGHSMGGHGALICALKNPGKYRSVSAFAPICNPVLCSWGKKAFSGYLGPDESKWKAYDATCLVKAYSGSQIDILIDQGKDDEFLSNGQLLPDNFIAACTEKKIPVVFRLQEGYDHSYYFIATFIADHIRHHAKYLNA
As to B1, in assay [1], the binding entry is “binds”.

B2: S-formylglutathione hydrolase (mouse, kidney) (enzyme, UniProt Q9R0P3 1-282)
chain: B1 chain
Take B2: the binding result in assay [2] was “binds”.

B3: S-formylglutathione hydrolase (human, HEK293) (enzyme, UniProt P10768 1-282)
chain: MALKQISSNKCFGGLQKVFEHDSVELNCKMKFAVYLPPKAETGKCPALYWLSGLTCTEQNFISKSGYHQSASEHGLVVIAPDTSPRGCNIKGEDESWDFGTGAGFYVDATEDPWKTNYRMYSYVTEELPQLINANFPVDPQRMSIFGHSMGGHGALICALKNPGKYKSVSAFAPICNPVLCPWGKKAFSGYLGTDQSKWKAYDATHLVKSYPGSQLDILIDQGKDDQFLLDGQLLPDNFIAACTEKKIPVVFRLQEGYDHSYYFIATFITDHIRHHAKYLNA
Consider B3, for which the binding result in assay [3] and in assay [4] was “binds” each time.
